# Data reported in patent US9222143.
# Protein sequences, listed by entry. Tags and fused reporters are not part of them. Lines headed by an entry give the natural chain unless they say otherwise; changes in a name come on top.
# UniProt P05555: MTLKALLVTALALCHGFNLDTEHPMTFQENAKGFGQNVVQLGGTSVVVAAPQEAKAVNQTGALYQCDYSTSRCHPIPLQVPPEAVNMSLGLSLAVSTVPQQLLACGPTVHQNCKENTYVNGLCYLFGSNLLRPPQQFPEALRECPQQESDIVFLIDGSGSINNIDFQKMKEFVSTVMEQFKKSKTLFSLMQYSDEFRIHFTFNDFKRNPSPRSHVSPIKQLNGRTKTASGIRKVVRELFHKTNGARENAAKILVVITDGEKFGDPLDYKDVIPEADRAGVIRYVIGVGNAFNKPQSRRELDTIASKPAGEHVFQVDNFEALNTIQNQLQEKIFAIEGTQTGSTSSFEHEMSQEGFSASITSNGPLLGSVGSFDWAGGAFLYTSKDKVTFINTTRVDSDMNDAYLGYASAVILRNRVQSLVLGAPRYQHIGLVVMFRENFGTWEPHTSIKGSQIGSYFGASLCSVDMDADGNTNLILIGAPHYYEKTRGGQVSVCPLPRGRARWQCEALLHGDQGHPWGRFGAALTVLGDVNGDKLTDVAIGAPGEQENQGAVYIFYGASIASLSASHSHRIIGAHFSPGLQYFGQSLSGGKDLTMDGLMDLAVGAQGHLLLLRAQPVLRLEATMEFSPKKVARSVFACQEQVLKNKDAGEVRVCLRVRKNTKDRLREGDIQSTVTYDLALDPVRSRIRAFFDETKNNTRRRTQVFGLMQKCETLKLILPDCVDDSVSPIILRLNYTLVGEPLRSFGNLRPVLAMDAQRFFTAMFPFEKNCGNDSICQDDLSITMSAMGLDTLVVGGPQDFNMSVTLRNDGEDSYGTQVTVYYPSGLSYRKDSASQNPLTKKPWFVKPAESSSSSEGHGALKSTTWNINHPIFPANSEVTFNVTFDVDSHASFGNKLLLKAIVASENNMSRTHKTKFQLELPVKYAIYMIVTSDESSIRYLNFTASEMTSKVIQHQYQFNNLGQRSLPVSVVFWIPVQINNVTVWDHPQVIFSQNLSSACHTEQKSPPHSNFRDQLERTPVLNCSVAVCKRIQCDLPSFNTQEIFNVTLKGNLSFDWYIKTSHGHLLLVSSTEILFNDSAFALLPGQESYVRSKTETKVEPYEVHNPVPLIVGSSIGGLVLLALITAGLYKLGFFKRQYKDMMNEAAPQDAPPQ
# These are yes or no findings as the source states them, for the method shown. Some binding calls cover weakened binding; strength is not graded here.
# Biological target: CD11b/CD18 receptor on J774A.1 murine monocytes/macrophages (murine) (UniProt P05555)
# Assay: binding to CD11b/CD18-expressing J774A.1 cells (FIG. 2A)
substance,measurement,value
CyaA/E570K+E581P (from UniProt J7QLC0 1-1706),binding,binds
